Assay results reported in US20040191918A1, “Evaluation of bitterness of active drugs” (priority 2003, published 2004).

Columns and labels:
[1] = In vivo bitterness evaluation by a human panel of tasters; details: aqueous solution, concentration per sample (Conc. mg/ml column), scale 1 to 20; for In Vivo(Panel) Bitterness Index Average Index: training samples; for In Vivo(Panel) Bitterness Value Average Index: validation samples
[2] = Bitterness measured with calibrated α Astree electronic tongue (seven ISFET sensors, PLS conversion relationship); details: 8 training samples, calculated with the conversion relationship optimising correlation (PLS), scale 1 to 20

| Structure (SMILES) | In Vivo(Panel) Bitterness Index Average Index [1] | “Measured” Bitterness Average Index [2] | In Vivo(Panel) Bitterness Value Average Index [1] |
| --- | --- | --- | --- |
| Cn1c(=O)c2c(ncn2C)n(C)c1=O [CA14, Caffeine] | 2.5 | 3.1 |  |
| Cn1c(=O)c2c(ncn2C)n(C)c1=O [CA16, Caffeine] | 8.5 | 6.3 |  |
| NC(N)=Nc1nc(CSCCC(N)=NS(N)(=O)=O)cs1 [FA01, Famotidine] |  |  | 4.2 |
| NC(N)=Nc1nc(CSCCC(N)=NS(N)(=O)=O)cs1 [FA02, Famotidine] |  |  | 9 |
| CN(C)C(=O)C(CCN1CCC(O)(c2ccc(Cl)cc2)CC1)(c1ccccc1)c1ccccc1 [LO20, Loperamide] |  |  | 14.0 |
| CN(C)C(=O)C(CCN1CCC(O)(c2ccc(Cl)cc2)CC1)(c1ccccc1)c1ccccc1 [LO21, Loperamide] |  |  | 7.5 |
| CC(=O)Nc1ccc(O)cc1 [PA03, Paracetamol] | 17 | 14.1 |  |
| CC(=O)Nc1ccc(O)cc1 [PA09, Paracetamol] | 10 | 13.6 |  |
| C[C@]12C=CC(=O)C=C1CC[C@@H]1[C@@H]2[C@@H](O)C[C@@]2(C)[C@H]1CC[C@]2(O)C(=O)CO [PR25, Prednisolone] | 17 | 17.3 |  |
| C[C@]12C=CC(=O)C=C1CC[C@@H]1[C@@H]2[C@@H](O)C[C@@]2(C)[C@H]1CC[C@]2(O)C(=O)CO [PR26, Prednisolone] | 13.5 | 14.5 |  |

Some results come without the dose or concentration used.
